Tested on: washed human platelets
Test: Uptake (loading) of IR-786 into washed platelets
Type: cell-based

CN1C(=CC=C2CCCC(C=CC3=[N+](C)c4ccccc4C3(C)C)=C2Cl)C(C)(C)c2ccccc21.[O-][Cl+3]([O-])([O-])[O-] [IR-786]
intracellular concentration: approximately 700 μM | molecules of fluorophore per platelet: approximately 3×10^6 molecules | IR-786 incorporated per platelet (2 μM IR-786): approximately 6 attomoles | molecules of IR-786 per platelet (2 μM IR-786): roughly 3,600,000 molecules | extracellular concentration up to which loading of platelets is linear (30 min at RT): ≤ 2.5 µM | fluorescence remaining in the supernatant (all concentrations tested): only trace fluorescence | incubation time of maximal incorporation into platelets (room temperature, 2 μM extracellular IR-786): 30 min

— US20080025918A1, “Invisible light fluorescent platelets for intraoperative detection of vascular thrombosis” (Beth Israel Deaconess Medical Center, Inc., priority 2006, published 2008)
